Assay [1] concerns the target GST-LXRβ ligand-binding domain (Homo sapiens, UniProt P55055, INS174Q). Put plainly: TR-FRETβ activity assay (NCoA3 coactivator peptide recruitment). The settings on record: read-out: FRETβ; 1 μM 24(S)-25-epoxycholesterol as prestimulating agonist; inverse agonist unless *. Here is the method: (§1) The tested compounds were usually dissolved, tested and stored as 20 mM stock solutions in DMSO. Since sulfonyl acetic acid derivatives tend to decarboxylate under these conditions, these stock solutions were prepared, tested and stored as 20 mM DMSO stock solutions containing 100 mM trifluoroacetic acid (5 equivalents). Sulfonyl acetic acid derivatives are shelf stable as solid at rt for long time as reported by Griesbrecht et al. (Synlett 2010:374) or Faucher et al. (J. Med. Chem. 2004; 47:18).
Recombinant GST-LXRβ ligand-binding domain (LBD; amino acids 156-461; NP009052; SEQ ID NO:4) was expressed in E. coli and purified via gluthatione-sepharose affinity chromatography. N-terminally biotinylated NCoA3 coactivator peptide (SEQ ID NO:7) was chemically synthesized (Eurogentec). Assays were done in 384 well format (final assay volume of 25 μL/well) in a Tris/HCl buffer (pH 6.8) containing KCl, bovine serum albumin, Triton-X-100 and 1 μM 24(S)-25-epoxycholesterol as LXR-prestimulating agonist. […] The reaction was mixed thoroughly, equilibrated for 1 h at 4° C. and vicinity of LXRβ and coactivator peptide was detected by measurement of fluorescence in a VictorX4 multiplate reader (PerkinElmer Life Science) using 340 nm as excitation and 615 and 665 nm as emission wavelengths. […]

By UniProt entry, the sequences of proteins in these tests, tags left out. Chains listed by the source or under a name are the forms on record and can include a tag or linker. Residues count along the entry.
UniProt P55055, with tags, fused parts or gaps INS174Q: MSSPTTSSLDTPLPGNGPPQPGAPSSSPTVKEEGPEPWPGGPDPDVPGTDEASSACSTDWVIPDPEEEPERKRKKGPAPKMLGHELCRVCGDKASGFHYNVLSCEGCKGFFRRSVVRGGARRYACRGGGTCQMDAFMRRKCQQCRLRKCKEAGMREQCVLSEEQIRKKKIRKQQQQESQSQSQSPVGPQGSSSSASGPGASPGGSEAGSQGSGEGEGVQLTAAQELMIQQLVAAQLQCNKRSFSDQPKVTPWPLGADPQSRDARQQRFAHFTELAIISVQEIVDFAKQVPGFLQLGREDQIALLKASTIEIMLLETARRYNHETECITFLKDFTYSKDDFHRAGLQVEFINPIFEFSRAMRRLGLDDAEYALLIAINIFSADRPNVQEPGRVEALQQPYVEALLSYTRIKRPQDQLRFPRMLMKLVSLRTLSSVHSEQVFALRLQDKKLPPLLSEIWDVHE
UniProt P55055, 156-460 with tags or gaps INS174Q limits assumed: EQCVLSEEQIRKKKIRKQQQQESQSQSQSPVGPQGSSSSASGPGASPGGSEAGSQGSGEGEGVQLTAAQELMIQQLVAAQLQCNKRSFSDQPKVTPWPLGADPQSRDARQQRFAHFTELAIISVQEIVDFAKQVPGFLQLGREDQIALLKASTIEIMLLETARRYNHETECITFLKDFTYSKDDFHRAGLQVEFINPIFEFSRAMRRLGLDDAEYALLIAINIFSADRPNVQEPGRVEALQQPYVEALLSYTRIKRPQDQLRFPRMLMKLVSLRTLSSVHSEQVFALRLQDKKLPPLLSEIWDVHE
UniProt Q13133, whole entry: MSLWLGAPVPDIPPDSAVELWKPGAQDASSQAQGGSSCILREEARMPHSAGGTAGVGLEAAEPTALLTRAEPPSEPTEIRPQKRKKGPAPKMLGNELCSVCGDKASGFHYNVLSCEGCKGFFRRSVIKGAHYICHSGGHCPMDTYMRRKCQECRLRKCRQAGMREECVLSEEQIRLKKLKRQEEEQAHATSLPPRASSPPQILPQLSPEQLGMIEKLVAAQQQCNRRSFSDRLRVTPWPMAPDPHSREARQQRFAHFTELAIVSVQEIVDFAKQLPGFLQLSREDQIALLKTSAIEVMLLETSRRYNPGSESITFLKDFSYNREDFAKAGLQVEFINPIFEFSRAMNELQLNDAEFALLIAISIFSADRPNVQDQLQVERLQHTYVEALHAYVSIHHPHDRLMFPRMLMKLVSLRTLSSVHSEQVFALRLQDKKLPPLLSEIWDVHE

Assay [2] addresses LXRα full length (FL) (Homo sapiens, UniProt Q13133). In words: LXR Gal4 reporter transient transfection assay, mammalian two-hybrid, FL-M2H Gal4α. The settings on record: read-out: FL-M2H Gal4α; HEK293 cells; inverse agonist unless *. How it is done: as §1
(§2) LXR Gal4 Reporter Transient Transfection Assays
(§3) LXRα and LXRβ activity status was determined via detection of interaction with coactivator and corepressor proteins in mammalian two-hybrid experiments (M2H). […] As cofactors, domains of either the steroid receptor coactivator 1 (SRC1; amino acids 552-887; SEQ ID NO:5) or of the corepressor NCoR (amino acids 1906-2312; NP006302; SEQ ID NO:6) were expressed as fusions to the DNA binding domain of the yeast transcription factor GAL4 (from pCMV-BD; Stratagene). Interaction was monitored via activation of a coexpressed Firefly Luciferase Reporter gene under control of a promoter containing repetitive GAL4 response elements (vector pFRLuc; Stratagene). […] Measurements of luminescence were done in a BMG-luminometer.

The target of assay [3] is LXRβ full length (FL) (Homo sapiens, UniProt P55055, INS174Q). Put plainly: LXR Gal4 reporter transient transfection assay, mammalian two-hybrid, FL-M2H Gal4β. The settings on record: read-out: FL-M2H Gal4β; HEK293 cells; inverse agonist unless *. How it is done:
as §1, §2, §3

The structures given here were assigned with low confidence; some may be wrong.

As to `Cc1nc2cccnn2c1C(=O)N(Cc1ccc(-c2cccc(C(C)(C)C(=O)O)c2)cc1)Cc1ccc(C(F)(F)F)o1` [27/116], the figures for the EC50 in assay [1], in assay [2] and in assay [3] were 1000 to 10000 nM, 100 to 1000 nM and 100 to 1000 nM, respectively.

Values taken from patent publication US20200131144A1, “AMINE OR (THIO)AMIDE CONTAINING LXR MODULATORS” (Phenex-FXR GmbH, priority 2017, published 2020).
